# Results from one PubChem assay

Source: PubChem BioAssay AID1918970 (NCATS, 2023).

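KMS27 multiple myeloma cell line treated for 48 hours, with viability read as ATP luminescence using CellTiter-Glo.
Each compound was run as a dilution series, mostly topping out near 45.8 µM; across the assay, concentrations span about 0.00003 to 92 µM.
The number is the fitted half-maximal concentration (AC50), and a lower value means stronger cell-killing potency.
Calls come from scores based on curve class: scores of 40 to 100 are active, 1 to 39 inconclusive (weak, partial, poorly fitted, single-point or rising curves), and class 4 curves inactive.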

Values are in µM.
Every entry below has the call inconclusive.
Only part of the assay is shown, chiefly results filed as inconclusive.
Potencies fitted to partial, single-point or poorly fitting curves are rough.
Some entries filed as inconclusive have a full curve.
The first word of each remark tells which way the curve ran; it can be opposite to the aim of the assay.
Activity scores are not listed here.

With C[C@@H]1[C@H](O)[C@@H](C)C=CC=CC=CC=CC=CC=CC=C[C@H](O[C@@H]2O[C@H](C)[C@H](O)[C@H](N)[C@@H]2O)C[C@@H]2O[C@](O)(C[C@@H](O)C[C@@H](O)[C@H](O)CC[C@@H](O)C[C@@H](O)CC(=O)O[C@H]1C)C[C@H](O)[C@@H]2C(=O)O the assay gave Potency 0.0019 µM (rising, full curve, poor fit).
With CC(C)Cn1cnc2c(N)nc3ccccc3c21 the assay gave Potency 5.899 µM (cytotoxic, partial curve, poor fit).
With C[C@](Cc1c[nH]c2ccccc12)(NC(=O)OC1C2CC3CC(C2)CC1C3)C(=O)NC[C@H](NC(=O)CCC(=O)O)c1ccccc1 (some centres not stated) the assay gave Potency 33.17 µM (cytotoxic, single point).
With Nc1ccc(-c2ccc3ncc4ccc(=O)n(-c5cccc(C(F)(F)F)c5)c4c3c2)cn1 the assay gave Potency 0.0148 µM (cytotoxic, full curve).
With NC(=O)c1ccc(-c2nc(-c3ccc4c(c3)OCCO4)c(-c3ccccn3)[nH]2)cc1 the assay gave Potency 29.57 µM (cytotoxic, single point).
With Cc1cnc(Nc2ccc(CN3CCOCC3)cc2)nc1Nc1cccc(S(=O)(=O)NC(C)(C)C)c1 the assay gave Potency 26.35 µM (cytotoxic, single point).
With Cc1ccc2nc(NC(=O)CSc3nc4c(c(=O)n3-c3ccccc3)SCC4)sc2c1 the assay gave Potency 4.686 µM (cytotoxic, partial curve).
With CCN(CC)CC#CCOC(=O)C(O)(c1ccccc1)C1CCCCC1 (configuration not stated) the assay gave Potency 23.48 µM (cytotoxic, single point).
With CCN(CC)CCCCNc1ncc2c(n1)N(C)C(=O)N(c1c(Cl)c(OC)cc(OC)c1Cl)C2 the assay gave Potency 0.001 µM.
With O=C(C=CC#Cc1cccc(NS(=O)(=O)c2ccccc2)c1)NO the assay gave Potency 3.317 µM (cytotoxic, full curve, poor fit).
With Cn1c2ccccc2c2c3c(c4c5ccccc5n(CCC#N)c4c21)CNC3=O the assay gave Potency 2.957 µM (cytotoxic, full curve, poor fit).
With COc1cccc(-c2ccc(NC(=O)C3=C(C(=O)O)CCC3)c(F)c2)c1 the assay gave Potency 5.258 µM (cytotoxic, partial curve, poor fit).
With CC(C)c1cc(C(C)C)c(CC(=O)NS(=O)(=O)Oc2c(C(C)C)cccc2C(C)C)c(C(C)C)c1 the assay gave Potency 0.0526 µM (cytotoxic, full curve, poor fit).
With COc1cc(C(=O)NS(=O)(=O)c2ccccc2C)ccc1Cc1cn(C)c2ccc(NC(=O)OC3CCCC3)cc12 the assay gave Potency 0.0021 µM (rising, full curve, poor fit).
With COC(=O)Nc1nc2ccc(S(=O)c3ccccc3)cc2[nH]1 (configuration not stated) the assay gave Potency 2.349 µM (rising, partial curve, poor fit).
With CN1CCN(CCCN2c3ccccc3Sc3ccc(C(F)(F)F)cc32)CC1 the assay gave Potency 2.957 µM (cytotoxic, partial curve, poor fit).

Repeated from the top, 2 entries:

C[C@@H]1[C@H](O)[C@@H](C)C=CC=CC=CC=CC=CC=CC=C[C@H](O[C@@H]2O[C@H](C)[C@H](O)[C@H](N)[C@@H]2O)C[C@@H]2O[C@](O)(C[C@@H](O)C[C@@H](O)[C@H](O)CC[C@@H](O)C[C@@H](O)CC(=O)O[C@H]1C)C[C@H](O)[C@@H]2C(=O)O read Potency 0.0019 µM (rising, full curve, poor fit).
CC(C)Cn1cnc2c(N)nc3ccccc3c21 read Potency 5.899 µM (cytotoxic, partial curve, poor fit).